PubChem BioAssay AID652259 | Drosophila RNAi Screening Center, 2013

Aim: 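Genome-wide hunt for genes that control Wingless pathway activity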 (primary screen)
Cells: Drosophila clone 8 imaginal disc epithelial cells
Reagent: long dsRNA against Drosophila genes
Conditions: pathway stimulated by co-transfected Wingless expression plasmid
Detection: 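Dual luciferase reads per well after Wingless plasmid stimulation: reporter firefly light and Renilla control light; activity is firefly divided by Renilla, a ratio not deposited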
Reading the numbers: firefly reporter light: higher = more Wg reporter light, before normalisation; Renilla control light: higher = more transfected or surviving cells
Call rule: 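Strong candidates differ from their plate mean by at least two out of four per-plate statistical tests; weak candidates meet just one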
Calls: active = candidate regulator (raises or lowers reporter); inactive = not a candidate
The screen tested about 22,000 reagents; shown is a random part of those with a known target gene and a result. In the full data, 233 (1.1%) were called active. 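Light values are raw, unnormalised plate reads; the ratio scores behind the reporter calls were not deposited.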 Reagents against one gene are numbered here. Names joined by + are all predicted targets of the reagent. The record does not give: the amount of reagent, the time to read-out, the dose of the treatment.

| gene | reagent no. | reporter change call, replicate 1 | firefly reporter light, replicate 1 | firefly reporter light, replicate 2 | Renilla control light, replicate 1 | Renilla control light, replicate 2 | Call |
| --- | --- | --- | --- | --- | --- | --- | --- |
| CG31815 | 1 | – | 16321 | – | 7762 | – | inactive |
| east | 1 | – | 28786 | – | 9773 | – | inactive |
| side-VIII | 1 | – | 22875 | – | 23105 | – | inactive |
| side-VIII | 2 | – | 31479 | – | 13461 | – | inactive |
| side-VIII | 3 | – | 5728 | – | 2416 | – | inactive |
| vg | 1 | – | 11666 | – | 4304 | – | inactive |
| vg | 2 | – | 4.80e5 | 4.92e5 | 2.22e5 | 1.77e5 | inactive |
| Tsen54 | 1 | – | 5827 | – | 2459 | – | inactive |
| Sox21a | 1 | – | 6896 | – | 2710 | – | inactive |
| ND-75 | 1 | – | 26245 | – | 12640 | – | inactive |
| FIG4 | 1 | – | 11692 | – | 3852 | – | inactive |
| CG10845 | 1 | – | 12733 | – | 11444 | – | inactive |
| CG15740 | 1 | – | 24487 | – | 7529 | – | inactive |
| CG31861 | 1 | – | 8.83e5 | 8.64e5 | 4.18e5 | 3.84e5 | inactive |
| CAHbeta | 1 | – | 3656 | – | 2090 | – | inactive |
| slx1 | 1 | – | 16713 | – | 3973 | – | inactive |
| lab | 1 | – | 12729 | – | 1728 | – | inactive |
| CG14456 | 1 | – | 8217 | – | 3607 | – | inactive |
| eIF2beta | 1 | – | 4458 | – | 1690 | – | inactive |
| CR31700 | 1 | – | 17204 | – | 9753 | – | inactive |
| CG8641 | 1 | – | 2633 | 9542 | 1898 | 3623 | inactive |
| shn | 1 | – | 20595 | – | 17141 | – | inactive |
| shn | 2 | – | 13211 | – | 4311 | – | inactive |
| CG7829 | 1 | – | 7320 | – | 2668 | – | inactive |
| GLaz | 1 | – | 3309 | – | 1744 | – | inactive |
| nero | 1 | – | 1493 | 2963 | 728 | 1733 | inactive |
| Or45b | 1 | – | 2433 | 12433 | 663 | 3584 | inactive |
| TrissinR | 1 | – | 3814 | 10274 | 1041 | 2181 | inactive |
| TrissinR | 2 | – | 4041 | 16581 | 1121 | 2817 | inactive |
| TrissinR | 3 | – | 1568 | 5779 | 1016 | 2890 | inactive |
| Trmt6 | 1 | – | 2280 | 7442 | 957 | 3361 | inactive |
| MFS12 | 1 | – | 4136 | – | 1876 | – | inactive |

Records above whose target name starts with C or c (9):
| gene | reagent no. | reporter change call, replicate 1 | firefly reporter light, replicate 1 | firefly reporter light, replicate 2 | Renilla control light, replicate 1 | Renilla control light, replicate 2 | Call |
| --- | --- | --- | --- | --- | --- | --- | --- |
| CG31815 | 1 | – | 16321 | – | 7762 | – | inactive |
| CG10845 | 1 | – | 12733 | – | 11444 | – | inactive |
| CG15740 | 1 | – | 24487 | – | 7529 | – | inactive |
| CG31861 | 1 | – | 8.83e5 | 8.64e5 | 4.18e5 | 3.84e5 | inactive |
| CAHbeta | 1 | – | 3656 | – | 2090 | – | inactive |
| CG14456 | 1 | – | 8217 | – | 3607 | – | inactive |
| CR31700 | 1 | – | 17204 | – | 9753 | – | inactive |
| CG8641 | 1 | – | 2633 | 9542 | 1898 | 3623 | inactive |
| CG7829 | 1 | – | 7320 | – | 2668 | – | inactive |

The results go on.
| gene | reagent no. | reporter change call, replicate 1 | firefly reporter light, replicate 1 | firefly reporter light, replicate 2 | Renilla control light, replicate 1 | Renilla control light, replicate 2 | Call |
| --- | --- | --- | --- | --- | --- | --- | --- |
| CG1943 | 1 | – | 14144 | – | 2352 | – | inactive |
| Vha68-1 | 1 | – | 3216 | 8770 | 1546 | 4296 | inactive |
| mRpL10 | 1 | – | 13077 | – | 3920 | – | inactive |
| Argl + CG9515 | 1 | – | 18065 | – | 5096 | – | inactive |
| Argl + CG9515 | 2 | – | 4592 | 8488 | 1127 | 4044 | inactive |
| norpA | 1 | – | 3991 | 8026 | 1800 | 2570 | inactive |
| CG43134 | 1 | – | 5990 | – | 1779 | – | inactive |
| Eig71Eh | 1 | – | 8738 | – | 4282 | – | inactive |
| rho-7 | 1 | – | 7193 | – | 2871 | – | inactive |
| CG7579 | 1 | – | 4611 | – | 1944 | – | inactive |
| CG12025 | 1 | – | 6384 | – | 2492 | – | inactive |
| CG3690 | 1 | – | 24728 | – | 20899 | – | inactive |
| CG3690 | 2 | – | 20845 | – | 15859 | – | inactive |
| Hinfp | 1 | – | 13328 | – | 10202 | – | inactive |
| Phb1 | 1 | – | 6804 | – | 2689 | – | inactive |
| SmydA-8 | 1 | – | 31875 | – | 18576 | – | inactive |
| SmydA-8 | 2 | – | 4.71e5 | 4.69e5 | 2.00e5 | 2.41e5 | inactive |
| SmydA-8 | 3 | – | 2.81e5 | 3.60e5 | 1.31e5 | 1.63e5 | inactive |
| CG13855 | 1 | – | 35024 | – | 6983 | – | inactive |
| Cul1 | 1 | – | 11212 | – | 2413 | – | inactive |
| CG10681 | 1 | – | 12546 | – | 3617 | – | inactive |
| CG10681 | 2 | – | 8.10e5 | 8.24e5 | 4.32e5 | 3.38e5 | inactive |
| CG7110 | 1 | Wg reporter activity lowered | 6402 | – | 3041 | – | inactive |
| CG7110 | 2 | – | 1986 | 6900 | 1318 | 3187 | inactive |
| CG13036 (retired record) | 1 | – | 8512 | – | 3228 | – | inactive |
| CG13361 | 1 | – | 16914 | – | 16466 | – | inactive |
| CG7328 | 1 | – | 13497 | – | 4272 | – | inactive |
| MetRS-m | 1 | – | 2928 | – | 1346 | – | inactive |
| MetRS-m | 2 | – | 11820 | – | 1878 | – | inactive |
| Dek | 1 | – | 8180 | – | 2610 | – | inactive |
| CG43068 | 1 | – | 16834 | – | 13724 | – | inactive |
| Taf1 | 1 | Wg reporter activity raised | 25175 | – | 1461 | – | active |
| AMPKalpha | 1 | – | 4304 | 4848 | 1456 | 1302 | inactive |
| sun | 1 | – | 16640 | – | 6699 | – | inactive |
| CG31200 | 1 | – | 14411 | – | 3749 | – | inactive |
| r2d2 | 1 | – | 1666 | 4768 | 855 | 3113 | inactive |
| enc | 1 | – | 4208 | – | 2245 | – | inactive |
| Eip75B | 1 | – | 2728 | – | 1253 | – | inactive |
| Eip75B | 2 | – | 6406 | – | 968 | – | inactive |
| CG43074 | 1 | – | 2237 | – | 1388 | – | inactive |
| Osi19 | 1 | – | 12040 | – | 4162 | – | inactive |
| bero | 1 | – | 2784 | 7484 | 971 | 2756 | inactive |
| CG31404 | 1 | – | 15331 | – | 2668 | – | inactive |
| Zasp52 | 1 | – | 5268 | – | 1691 | – | inactive |
| Zasp52 | 2 | – | 5760 | – | 2840 | – | inactive |
| CG13510 | 1 | – | 3532 | 8528 | 819 | 3523 | inactive |
| CG14160 | 1 | – | 6619 | – | 3031 | – | inactive |
| BEAF-32 | 1 | – | 16118 | – | 4088 | – | inactive |
| CG15115 | 1 | – | 4032 | – | 970 | – | inactive |
| Ldaf1 | 1 | – | 3121 | 6178 | 1613 | 2912 | inactive |
| Phb2 | 1 | – | 4602 | – | 1157 | – | inactive |
| snRNA:U4atac | 1 | – | 3651 | – | 1357 | – | inactive |
| mei-W68 | 1 | – | 3361 | – | 1831 | – | inactive |
| CG14450 | 1 | – | 10864 | – | 2716 | – | inactive |
| CG8851 | 1 | – | 2101 | 4816 | 928 | 1817 | inactive |
| ana3 | 1 | – | 4947 | – | 2249 | – | inactive |
| Cyp28d1 | 1 | – | 14836 | – | 6512 | – | inactive |
| Cyp28d1 | 2 | – | 6.69e5 | 7.65e5 | 5.79e5 | 3.39e5 | inactive |
| CG1750 | 1 | – | 2218 | 7769 | 970 | 1952 | inactive |
| Src64B | 1 | – | 1208 | 7360 | 1081 | 2951 | inactive |
| shu | 1 | – | 10488 | – | 3752 | – | inactive |
